± gives the standard deviation. The list shows a part of the results, in another mix than the full data. Many entries were measured with a wide error. The list shows a part of the results.
Each sequence was assayed on MILI (PIWIL2) piRISC loaded with L1MC piRNA (26 nt) (assay: pre-steady-state target cleavage rate (min^-1); higher = faster piRNA-guided slicing of the target). Conditions: guide: L1MC piRNA 5'p-UAACUAAAUACUAUGCAAGCUGUAGG; auxiliary factor: none (no GTSF1).
Outline: (§1)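 In this Cleave-'n-Seq assay, uncleaved targets were sequenced and normalised to depth and to weakly complementary targets. They came from a transcribed, DNA-blocked target RNA library […] mixed with 1 nM active affinity-purified piRISC carrying one synthetic guide, with or without 500 nM GTSF1 partner protein, in HEPES–potassium acetate buffer at 33 °C for 0–8 or 0–960 min. After three trials were pooled and k3 was capped at 0.0001 min^-1, the pre-steady-state cleavage rate was obtained from a burst-and-steady-state fit.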

Sequence | pre-steady-state target cleavage rate
UCCUCCUACAGCUUGCAAAGUAUUUAGAAA | 0.00105 ± 0.0044
UCCUCCUACAGCUUGCAUAGUUUUAAGUUA | 0.00163 ± 0.004
UCCUGGAUGUGCUUGCAUAGUAUUCAGUUA | 0.00227 ± 0.0037
UCCUGCUACUGCUUCCAUAGUAUUUAGUUA | 0.00141 ± 0.0047
UCCUGGAUGUGCUUGCAUAGAAUUUAGAUA | 0.00117 ± 0.0055
UCCUGGAACAGCUUGCAUAGAAUUAAGUUA | 0.00101 ± 0.0065
UCCUGGUUCAGCUUGCAUAGUAUUUAGAUA | 0.00307 ± 0.0033
UCCUGGUACAGCUUGCAUAGUUUUUAGAAA | 0.00283 ± 0.0033
UCCUGGAACUGCUUGCAUAGUAUUUAGAUA | 0.00195 ± 0.004
UCCUGGAUGACCUUGCAUAGUAUUUUGUUA | 0.00257 ± 0.0032
UCCUGCUACAGGUUGCAUAGAAUUUAGUUA | 0.00241 ± 0.0026
UCCUCCUACAGCUUGCAUACUUUUUAGUUA | 0.00203 ± 0.0031
UCCUGGAACACCUUGCAUAGUAUUUAGAAA | 0.00131 ± 0.005
UCCUGGAUGAGCUUGCAAUGUAUUUACAAA | 0.000914 ± 0.0095
UCCUGGUACAGCUUGCAUAGAAUAUAGUUA | 0.00103 ± 0.0058
UCCUGGAUGUGCUUGCAUAGAAUUUACUUA | 0.00154 ± 0.0043

The sequences below were run on EfPiwi piRISC loaded with L1MC piRNA (26 nt) (assay: pre-steady-state target cleavage rate (min^-1); guide: L1MC piRNA 5'p-UAACUAAAUACUAUGCAAGCUGUAGG; MIWI and MILI are mouse PIWI proteins and EfPiwi is from a freshwater sponge; tags in brackets are library labels; higher = faster piRNA-guided slicing of the target). Conditions: auxiliary factor: 500 nM Ephydatia muelleri Gtsf1.
Outline: as §1

Sequence | pre-steady-state target cleavage rate
UCCUGGAACAGAUUGCAUAGUAUUUAGUUA | 0.0572 ± 0.014
UCCUGGAUGACCUUGCAUAGAAUUUAGUUA | 0.000357 ± 0.023
UCCUGGAUGUCGUUGCAUAGUAUAUAGUAA | 0.000321 ± 0.012
UCCUGGAUGUGCUUGCAUAGUAUUAAGUAA | 0.00114 ± 0.0055
UCCUGGAUGUCGAACCAUAGUGUUUAGUUA | 0.000127 ± 0.024
UCCUGCUACAGCUUGCAUAGUUUUUACUUA | 0.000718 ± 0.0081
UCCUGGUACAGCUUGGAUAGUAUUUAGAUA | 0.00238 ± 0.0025
UCCUCCUACAGCAUGCAUAGUAUUUAGAUA | 0.00452 ± 0.0019
UCCUGGAUGUCGAUGCAUAGCAUUUAGUUA | 0.000498 ± 0.0067
UCCUGGAUGUGCUUGCAUAGUAUUAUGUUA | 0.000819 ± 0.0062
UCCUCCUAGAGCUUGCAUAGUUUUUAGUUA | 0.00428 ± 0.0017
UCCUGGAACAGCUUGCAUAGUAUAUACUUA | 0.000524 ± 0.011
UCCUGGUACAGCUUGCAUAGUAUUUAGGUA | 0.00463 ± 0.0022
UCCUGGAUGUCCUUGCAUAGUAUUUACUUA | 0.00202 ± 0.0037
UCCUGGAACAGCUUGCAUAGUAAUUACUUA | 0.000707 ± 0.0089
UCCUGCUACAGCUUGCAUAGUAUUAUCAAA | 0.00232 ± 0.0026
UCCUGCUACAGCUUGCAUAGAAUUUAGUUA | 0.00582 ± 0.0022
UCCUGGAACAGCUUGCAUAGUAUAAUGUUA | 0.00416 ± 0.0026
UCCUGGAUGUGCUUGCAUAGUAUUUCAGUUA | 0.000746 ± 0.0051
UCCUGCUUCAGCUUGCAUAGAAUUUAGUUA | 0.00544 ± 0.0015

Sequence | pre-steady-state target cleavage rate
UCCUGGAUCCGCUUGCAUAGUAUUUAGUUA | 0.146 ± 0.029
UCCUCCUACUGCUUGCAUAGUAUUUAGAAA | 0.00462 ± 0.0021
UCCUCCUACAGCUUGCAAAGUAUUUAGAUA | 0.00419 ± 0.0024
UCCUCCUACAGCUUGCAAAGUAUUUAGAAA | 0.00344 ± 0.0017
UCCUCCUACAGCUUGCAUAGUUUUAAGUUA | 0.00431 ± 0.0024
UCCUGGAUGUGCUUGCAUAGUAUUCAGUUA | 0.00279 ± 0.0024
UCCUGCUACAGCUAGCAUAGUAUUUAGUUA | 0.0287 ± 0.0081
UCCUGCUACUGCUUCCAUAGUAUUUAGUUA | 0.00205 ± 0.0016
UCCUGGAUGUGCUUGCAUAGAAUUUAGAUA | 0.00136 ± 0.0039
UCCUGGAACAGCUUGCAUAGAAUUAAGUUA | 0.00115 ± 0.0033
UCCUGGUUCAGCUUGCAUAGUAUUUAGAUA | 0.00378 ± 0.002
UCCUGGUACAGCUUGCAUAGUUUUUAGAAA | 0.00142 ± 0.006
UCCUGGAACUGCUUGCAUAGUAUUUAGAUA | 0.00297 ± 0.002
UCCUGGAUGACCUUGCAUAGUAUUUUGUUA | 0.000779 ± 0.0082
UCCUGCUACAGGUUGCAUAGAAUUUAGUUA | 0.00649 ± 0.0018
UCCUCCUACAGCUUGCAUACUUUUUAGUUA | 0.00233 ± 0.0026
UCCUGGAACACCUUGCAUAGUAUUUAGAAA | 0.00182 ± 0.0029
UCCUGGAUGAGCUUGCAAUGUAUUUACAAA | 0.000282 ± 0.015
UCCUGGUACAGCUUGCAUAGAAUAUAGUUA | 0.00126 ± 0.0035
UCCUGGAUGUGCUUGCAUAGAAUUUACUUA | 0.000255 ± 0.026

Same assay, conditions: auxiliary factor: none (no Gtsf1)

Sequence | pre-steady-state target cleavage rate
UCCUGGAACAGAUUGCAUAGUAUUUAGUUA | 0.00165 ± 0.0051
UCCUGGAUGACCUUGCAUAGAAUUUAGUUA | 0.000612 ± 0.014
UCCUGGAUGUCGUUGCAUAGUAUAUAGUAA | 0.000116 ± 0.072
UCCUGGAUGUGCUUGCAUAGUAUUAAGUAA | 0.000537 ± 0.018
UCCUGGAUGUCGAACCAUAGUGUUUAGUUA | 0.000207 ± 0.028
UCCUGCUACAGCUUGCAUAGUUUUUACUUA | 0.000254 ± 0.027
UCCUGGUACAGCUUGGAUAGUAUUUAGAUA | 0.000273 ± 0.031
UCCUCCUACAGCAUGCAUAGUAUUUAGAUA | 0.000264 ± 0.022
UCCUGGAUGUCGAUGCAUAGCAUUUAGUUA | 0.000428 ± 0.01
UCCUGGAUGUGCUUGCAUAGUAUUAUGUUA | 0.00054 ± 0.017
UCCUCCUAGAGCUUGCAUAGUUUUUAGUUA | 0.000601 ± 0.0084
UCCUGGAACAGCUUGCAUAGUAUAUACUUA | 0.000311 ± 0.029
UCCUGGUACAGCUUGCAUAGUAUUUAGGUA | 0.000457 ± 0.026
UCCUGGAUGUCCUUGCAUAGUAUUUACUUA | 0.00016 ± 0.042
UCCUGGAACAGCUUGCAUAGUAAUUACUUA | 0.00059 ± 0.013
UCCUGCUACAGCUUGCAUAGUAUUAUCAAA | 0.000335 ± 0.019
UCCUGCUACAGCUUGCAUAGAAUUUAGUUA | 0.00101 ± 0.0064
UCCUGGAACAGCUUGCAUAGUAUAAUGUUA | 0.000781 ± 0.011
UCCUGGAUGUGCUUGCAUAGUAUUUCAGUUA | 0.00035 ± 0.027
UCCUGCUUCAGCUUGCAUAGAAUUUAGUUA | 0.00271 ± 0.0045

Sequence | pre-steady-state target cleavage rate
UCCUGGAUCCGCUUGCAUAGUAUUUAGUUA | 0.000282 ± 0.036
UCCUCCUACUGCUUGCAUAGUAUUUAGAAA | 0.000383 ± 0.0094
UCCUCCUACAGCUUGCAAAGUAUUUAGAUA | 0.000433 ± 0.01
UCCUCCUACAGCUUGCAAAGUAUUUAGAAA | 0.000627 ± 0.012
UCCUCCUACAGCUUGCAUAGUUUUAAGUUA | 0.000916 ± 0.0069
UCCUGGAUGUGCUUGCAUAGUAUUCAGUUA | 0.000916 ± 0.013
UCCUGCUACAGCUAGCAUAGUAUUUAGUUA | 0.000986 ± 0.006
UCCUGCUACUGCUUCCAUAGUAUUUAGUUA | 0.000308 ± 0.014
UCCUGGAUGUGCUUGCAUAGAAUUUAGAUA | 0.000258 ± 0.025
UCCUGGAACAGCUUGCAUAGAAUUAAGUUA | 0.00049 ± 0.013
UCCUGGUUCAGCUUGCAUAGUAUUUAGAUA | 0.000817 ± 0.011
UCCUGGUACAGCUUGCAUAGUUUUUAGAAA | 0.000571 ± 0.022
UCCUGGAACUGCUUGCAUAGUAUUUAGAUA | 0.00015 ± 0.058
UCCUGGAUGACCUUGCAUAGUAUUUUGUUA | 0.00088 ± 0.014
UCCUGCUACAGGUUGCAUAGAAUUUAGUUA | 0.00101 ± 0.0083
UCCUCCUACAGCUUGCAUACUUUUUAGUUA | 0.000421 ± 0.01
UCCUGGAACACCUUGCAUAGUAUUUAGAAA | 0.000327 ± 0.021
UCCUGGAUGAGCUUGCAAUGUAUUUACAAA | 0.000632 ± 0.014
UCCUGGUACAGCUUGCAUAGAAUAUAGUUA | 0.000803 ± 0.012
UCCUGGAUGUGCUUGCAUAGAAUUUACUUA | 0.000306 ± 0.024
